Assay results from patent publication US20120108629A1, “New use of neferine” (Institute of Chinese Materia Medica, China Academy, priority 2009, published 2012).
At least one compound was matched to its structure with a doubt left.

What was measured:
TRPV1 mRNA = TRPV1 mRNA expression in DRG cells by real-time PCR; format: cell-based, rat
TRPM8 mRNA = TRPM8 mRNA expression in DRG cells by real-time PCR; conditions: 19° C.

CC1CCC(C(C)C)C(O)C1 (stereo not drawn) [hexahydrothymol, reference compound]
Effect on TRPV1 mRNA expression (in words) (TRPV1 mRNA; 19° C.): further inhibit expression levels of TRPV1 mRNA dose-dependently | Effect on TRPV1 mRNA expression (in words) (TRPV1 mRNA; 37° C., under the test concentrations): could not change expression levels of TRPV1 mRNA | Effect on TRPM8 mRNA expression (in words) (TRPM8 mRNA): up-regulate expression levels of TRPM8 mRNA dose-dependently
